The results are deposited in PubChem (AID743020; Broad Institute, 2013).

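HEK293 cells carrying a CMV promoter luciferase reporter, with luminescence read 24 h after treatment to check for nonspecific loss of reporter signal.
Percent change in reporter signal versus neutral control wells at the top tested concentration; more negative values mean stronger inhibition.
Inconclusive means the independent runs disagreed, the fit was flat at 30 to 70% inhibition, or the curve fit was poor.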

Values are in %.
Every entry below has the call inconclusive.
Only part of the assay is shown, chiefly results filed as inconclusive.

SMILES | setting | activity change (%)
Cc1c(Nc2cc(Cl)c3nonc3c2[N+](=O)[O-])c(=O)n(-c2ccccc2)n1C | at 35 µM (top of the series) | -81.81
CCOC(=O)C1(Cc2ccc(OC)cc2)CCN(C(=O)CN2CCCCC2=O)CC1 | at 35 µM (top of the series) | 17.94
CCCC(=O)NC1=C(Cl)C(=O)c2ccccc2C1=O | at 35 µM (top of the series) | -21.05
COc1ccc(O)c(C(c2c(C)[nH][nH]c2=O)c2c(C)[nH][nH]c2=O)c1 | at 35 µM (top of the series) | -98.25
O=C(COc1ccccc1-c1ccccc1)N/N=C/c1ccc2ccccc2c1 | at 35 µM (top of the series) | 102.5
CCS(=O)(=O)c1ncc(Cl)c(C(=O)Nc2ccc(S(=O)(=O)N3CCCC(C)C3)cc2)n1 (stereo not given) | at 35 µM (top of the series) | -78.39
CC1OC(OC2C=C3CCC4C(CCC5(C)C(c6ccc(=O)oc6)CCC45O)C3(C)CC2)C(O)C(OC2OC(CO)C(O)C(O)C2O)C1O (stereo not given) | at 35 µM (top of the series) | -89.81
OCC1CCCN(C(=S)Nc2ccc(OC(F)F)cc2)C1 (stereo not given) | at 35 µM (top of the series) | 39.94
COc1cccc(C#Cc2ccc([C@H]3[C@@H](CO)N(C(=O)c4ccccn4)[C@H]3C#N)cc2)c1 | at 35 µM (top of the series) | -32.11
CN(C[C@H]1N[C@@H](CO)[C@@H]1c1ccc(C2=CCCC2)cc1)C(=O)c1cccc(F)c1 | at 35 µM (top of the series) | 35.19
Oc1ccc(C[C@H]2CNC(=S)N2CC2CCCN2C[C@H](Cc2ccc(O)cc2)N2C[C@H](Cc3ccc(O)cc3)N(CC3CCCCCC3)C2=S)cc1 (stereo not given in full) | at 35 µM (top of the series) | -28.25
COc1ccc(-c2csc(NC(=O)c3ccccc3NS(=O)(=O)c3ccc(F)c(F)c3)n2)cc1 | at 35 µM (top of the series) | -61.1
O=c1[nH]nnc2c1ncn2C1OC(CO)C(O)C1O (stereo not given) | at 35 µM (top of the series) | -56.5
CN(C)CCNC(=O)c1cc2c(s1)-c1ccc(Cl)cc1SC2 | at 35 µM (top of the series) | -94.28
Brc1ccc2nc(-c3ccc(CN4CCC(c5nc6ccccc6[nH]5)CC4)cc3)c(-c3ccccc3)nc2c1 | at 35 µM (top of the series) | -57.16
COc1ccc(N2C(=O)CC(Sc3nnc(-c4ccccc4)o3)C2=O)cc1 (stereo not given) | at 35 µM (top of the series) | -28.43
O=C(C[C@H]1C[C@@H]2c3cc(NS(=O)(=O)c4ccc(F)cc4)ccc3O[C@@H]2[C@@H](CO)O1)N1CCc2ccccc2C1 | at 35 µM (top of the series) | -34.37
Cc1ccc(S(=O)(=O)Nc2ccc3c(c2)C(=O)N([C@@H](C)CO)C[C@H](C)[C@H](CN(C)Cc2ccc(C(F)(F)F)cc2)OCCCC[C@H](C)O3)cc1 | at 35 µM (top of the series) | -18.59
C#CCN(C[C@@H]1[C@@H](OC(=O)Nc2cccs2)[C@@H](OC(=O)Nc2cccs2)Cn2c(=O)ccc(=O)n21)S(=O)(=O)c1ccc(C)cc1 | at 35 µM (top of the series) | -21.67
COc1ccc(C)cc1NS(=O)(=O)c1ccc(-c2cnc(C3CC3)o2)cc1 | at 35 µM (top of the series) | -55.3
OCC1OC(n2cnc3c(NCc4ccccc4O)ncnc32)C(O)C1O (stereo not given) | at 35 µM (top of the series) | -55.51
CN1c2ccccc2N(C)C1(C)c1ccccc1 | at 35 µM (top of the series) | -24.72
CC(=O)NC(c1ccc(C(C)C)cc1)c1ccc2cccnc2c1O (stereo not given) | at 35 µM (top of the series) | -27.31
Cc1cccc(N(C)S(=O)(=O)c2ccc(-c3cnc(C4CC4)o3)cc2)c1 | at 35 µM (top of the series) | -46.73
COc1cccc(N2CCN(C(=O)c3ccc(CS(=O)c4ccccc4Cl)o3)CC2)c1 (stereo not given) | at 35 µM (top of the series) | -45.47
O=C(c1ccccc1)C(CN1CCCC1)c1ccccc1 (stereo not given) | at 35 µM (top of the series) | -56.22
COC1=CC(=O)c2c(ccc3ncnc(N)c23)C1=O | at 35 µM (top of the series) | -44.06
CS(=O)(=O)Nc1ccc2c(c1)[C@@H]1C[C@@H](CC(=O)NCc3ccc(Oc4ccccc4)cc3)O[C@@H](CO)[C@@H]1O2 | at 35 µM (top of the series) | -44.78
CN1C2CCC1/C(=C/c1ccccn1)C(=O)/C2=C\c1ccccn1 | at 35 µM (top of the series) | -89.34
COc1ccc(OC)c(-c2nnc3n2N=C(c2ccc(OC)c(OC4CCCC4)c2)CS3)c1 | at 35 µM (top of the series) | 138.5
C(=NNc1ccc2ccccc2n1)c1ccccn1 | at 35 µM (top of the series) | -56.93
C[C@@H]1CCCCO[C@@H](CN(C)Cc2ccc(Cl)c(Cl)c2)[C@H](C)CN([C@@H](C)CO)C(=O)c2cc(NC(=O)Nc3ccc(C(F)(F)F)cc3)ccc2O1 | at 35 µM (top of the series) | -34.41
COc1cc(CNc2ncnc3c2ncn3[C@H]2CN(Cc3ccc(-c4ccccc4)cc3)C[C@@H](CO)O2)cc(OC)c1OC | at 35 µM (top of the series) | -93.83
Fc1ccc(CSc2ccc(-c3ccco3)nn2)cc1 | at 35 µM (top of the series) | 93.32
CN[C@H]1CCc2cc(OC)c(OC)c(OC)c2-c2ccc(OC)c(=O)cc21 | at 35 µM (top of the series) | -50.26
CCN(CC)S(=O)(=O)c1cccc(NC(=O)Nc2cccc(C(F)(F)F)c2)c1 | at 35 µM (top of the series) | -26.08
O=C(CSc1cccc[n+]1[O-])Nc1cc(S(=O)(=O)N2CCOCC2)ccc1N1CCOCC1 | at 35 µM (top of the series) | -17.7
COc1ccc(S(=O)(=O)N(C)C[C@H]2Oc3cc(C#CC4CCCC4)ccc3S(=O)(=O)N([C@@H](C)CO)C[C@@H]2C)cc1 | at 35 µM (top of the series) | -29.74
Nc1nc(N)c2c(ccc3c2ccn3Cc2cccc([N+](=O)[O-])c2)n1 | at 35 µM (top of the series) | -70.83
CCS(=O)(=O)c1ccc(N=Nc2ccc(O)c3ncccc23)c(OC)c1 | at 35 µM (top of the series) | -68.91
COc1cc(-c2cnc3c(NC=O)cc(-c4ccccc4)cn23)cc(OC)c1OC | at 35 µM (top of the series) | 197.5
COc1ccc(C[C@H](N)C(=O)N[C@H]2[C@@H](O)[C@H](n3cnc4c(N(C)C)ncnc43)O[C@@H]2CO)cc1 | at 35 µM (top of the series) | -99.81
CC(=CCOc1ccc2ccc(=O)oc2c1)C1=CC(=O)C(C)(C)O1 | at 35 µM (top of the series) | -34.8
Cc1ccc(S(=O)(=O)Nc2ccc3c(c2)C(=O)N([C@@H](C)CO)C[C@H](C)[C@@H](CN(C)C(=O)Nc2cccc4ccccc24)OCCCC[C@@H](C)O3)cc1 | at 35 µM (top of the series) | -39.46
CCOC(=O)c1ccc(NC(=O)Cn2ncc(Cl)c(Cl)c2=O)cc1 | at 35 µM (top of the series) | -29.46
COC(=O)[C@H]1[C@@H](O)[C@@]2(O)c3c(OC)cc(OC)cc3O[C@@]2(c2ccc(OC)cc2)[C@@H]1c1ccc(F)cc1 | at 35 µM (top of the series) | -78.39
CCOc1ccc2ccccc2c1/C=N\NC(=O)OC | at 35 µM (top of the series) | -5
COc1ccc(C2CC(c3ccc(Br)cc3)=NN2C(=S)Nc2ccccc2)cc1 (stereo not given) | at 35 µM (top of the series) | 34.29

For reference, 6 entries once more:

SMILES,setting,activity change (%)
COc1cc(-c2cnc3c(NC=O)cc(-c4ccccc4)cn23)cc(OC)c1OC,at 35 µM (top of the series),197.5
O=C(CSc1cccc[n+]1[O-])Nc1cc(S(=O)(=O)N2CCOCC2)ccc1N1CCOCC1,at 35 µM (top of the series),-17.7
CC1OC(OC2C=C3CCC4C(CCC5(C)C(c6ccc(=O)oc6)CCC45O)C3(C)CC2)C(O)C(OC2OC(CO)C(O)C(O)C2O)C1O (stereo not given),at 35 µM (top of the series),-89.81
COc1ccc(O)c(C(c2c(C)[nH][nH]c2=O)c2c(C)[nH][nH]c2=O)c1,at 35 µM (top of the series),-98.25
Oc1ccc(C[C@H]2CNC(=S)N2CC2CCCN2C[C@H](Cc2ccc(O)cc2)N2C[C@H](Cc3ccc(O)cc3)N(CC3CCCCCC3)C2=S)cc1 (stereo not given in full),at 35 µM (top of the series),-28.25
CCOC(=O)C1(Cc2ccc(OC)cc2)CCN(C(=O)CN2CCCCC2=O)CC1,at 35 µM (top of the series),17.94